A short description of data set [1]: Sensory tests on iron-fortified sake. Particulars: 25 panelists; for Sensory evaluation (taste pleasant): sake.
The nature of data set [2]: Sensory tests on iron-fortified cookies. Particulars: 25 panelists; for Sensory evaluation (taste pleasant): cookies.

Non-standard residues stand in square brackets, D forms with d. Residues, ends and D or L forms follow the SMILES beside them. ξ: configuration not given here. ξOrn(N(OH)Ac) = CC(=O)N(O)CCCC(N)C(=O)O

For the molecule `CC(=O)N([O-])CCCC1NC(=O)CNC(=O)C(CO)NC(=O)C(CO)NC(=O)C(CCCN([O-])C(C)=O)NC(=O)C(CCCN([O-])C(C)=O)NC1=O.[Fe+3]` (centres unmarked) [Ferrichrysin, ferrichrysin] (cyclo(G[ξOrn(N(OH)Ac)][ξOrn(N(OH)Ac)][ξOrn(N(OH)Ac)]SS); configuration not given here), the “Amount added to sake giving good sensory evaluations” value in data set [1] is not above 1 mg/mL. Also, the “Sensory evaluation (taste pleasant)” value in data set [1] (ferrichrysin 0.01 mg/ml) is listed as “+++ (20 or more panelists found the taste pleasant)”; in data set [1] (ferrichrysin 0.05 mg/ml), “+++ (20 or more panelists found the taste pleasant)”; in data set [1] (ferrichrysin 0.1 mg/ml), “+++ (20 or more panelists found the taste pleasant)”; in data set [1] (ferrichrysin 0.2 mg/ml) it was “+++ (20 or more panelists found the taste pleasant)”; in data set [1] (ferrichrysin 0.5 mg/ml) it was “++ (7 to 19 panelists found the taste pleasant)”; in data set [1] (ferrichrysin 1 mg/ml), “+ (1 to 6 panelists found the taste pleasant)”. Further, the “Sensory evaluation (taste pleasant)” value is on record as “− (no panelists found the taste pleasant)” in data set [1] (ferrichrysin 2 mg/ml); “− (no panelists found the taste pleasant)” in data set [1] (ferrichrysin 5 mg/ml); “− (no panelists found the taste pleasant)” in data set [1] (ferrichrysin 10 mg/ml); “+++ (20 or more panelists found the taste pleasant)” in data set [2] (ferrichrysin 0.05 mg/g); “+++ (20 or more panelists found the taste pleasant)” in data set [2] (ferrichrysin 0.1 mg/g); “+++ (20 or more panelists found the taste pleasant)” in data set [2] (ferrichrysin 0.2 mg/g). For the same molecule, the “Sensory evaluation (taste pleasant)” value in data set [2] (ferrichrysin 0.5 mg/g) was “+++ (20 or more panelists found the taste pleasant)”; in data set [2] (ferrichrysin 1.5 mg/g) it was “++ (7 to 19 panelists found the taste pleasant)”; in data set [2] (ferrichrysin 3.0 mg/g), “+ (1 to 6 panelists found the taste pleasant)”; in data set [2] (ferrichrysin 5.0 mg/g), “− (no panelists found the taste pleasant)”; in data set [2] (ferrichrysin 10 mg/g) it was “− (no panelists found the taste pleasant)”; in data set [2] (ferrichrysin 20 mg/g) it was “− (no panelists found the taste pleasant)”. Moreover, the “Amount added to cookies giving good sensory evaluations” value in data set [2] is not above 3 mg/g.
